Measurements reported in PubChem BioAssay AID1259308 (NCATS, 2017).

Purpose: 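Candidate targets for better recombinant protein yield in mammalian cells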 (primary screen)
System: human HEK293 embryonic kidney cells stably expressing firefly luciferase (HEK-CMV-Luc2-Hygro)
Knock-down reagent: single siRNA against human genes, 0.8 pmol siRNA per well
Timing: 72 h
Measured: 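Reporter luminescence and viable-cell signal on separate replicate plates, given as percent of non-targeting control and median/MAD z-scores, plus per-cell luciferase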
Direction: total luciferase, z-score: higher = more reporter protein produced
Call rule: 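Active when the median/MAD z-score for overall luciferase is greater than 3; a gene was taken forward for validation with new siRNAs if at least two of its three siRNAs passed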
Calls: active = raised luciferase; inactive = no rise
In all, the deposit lists about 59,000 reagents; shown is an unselected part. Over the whole deposit, about 1,510 (2.6%) are marked active. 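Calls use total luciferase alone and ignore viability, so some active siRNAs may act by altering cell number.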 A number with no mark means an inactive call. Further read-outs or replicates are left out here.

Against TGM5 [SID160721970], the entry reads total luciferase, z-score -0.335.
With knock-down of TGM5 [SID160721971], the record shows total luciferase, z-score -0.161.
With knock-down of TGM5 [SID160721972] the results were total luciferase, z-score 2.15.
FICD [SID160730059] gave total luciferase, z-score -1.19.
FICD [SID160730060] gave total luciferase, z-score -0.396.
With knock-down of FICD [SID160730064] the results were total luciferase, z-score -0.0868.
PIGP [SID160740359] showed total luciferase, z-score -1.65.
PIGP [SID160740360] showed total luciferase, z-score 1.35.
Against PIGP [SID160740361] the deposit lists total luciferase, z-score -0.13.
With knock-down of HRH3 [SID160730302] the results were total luciferase, z-score 1.14.
Depletion of HRH3 [SID160730303] came out at: total luciferase, z-score -1.21.
For HRH3 [SID160730304] the deposit lists total luciferase, z-score -1.18.
C3orf22 [SID160724885] scored total luciferase, z-score -0.393.
Knock-down of C3orf22 [SID160759194] gave: total luciferase, z-score -0.408.
Depletion of C3orf22 [SID160759195] came out at: total luciferase, z-score 2.24.
PEX1 [SID160714109] gave total luciferase, z-score 0.122.
Against PEX1 [SID160714110], the values are total luciferase, z-score 1.25.
With knock-down of PEX1 [SID160731407], the screen gave total luciferase, z-score -0.419.
HEPACAM [SID160761517] showed total luciferase, z-score -0.0929.
Depletion of HEPACAM [SID160761518] came out at: total luciferase, z-score -0.926.
HEPACAM [SID160761519] scored total luciferase, z-score -0.406.
With knock-down of DDX60L [SID160753946], the screen gave total luciferase, z-score -0.757.
For DDX60L [SID160753947], the entry reads total luciferase, z-score -0.739.
After knock-down of DDX60L [SID160753948], the screen gave total luciferase, z-score -0.214.
Silencing of DLAT [SID160754482] resulted in: total luciferase, z-score -0.403.
DLAT [SID160754491] gave total luciferase, z-score 0.612.
After knock-down of DLAT [SID160754502], the record shows total luciferase, z-score 0.265.
After knock-down of KRTAP19-6 [SID160725059], the record shows total luciferase, z-score 1.71.
KRTAP19-6 [SID160733072] showed total luciferase, z-score -0.6.
KRTAP19-6 [SID160763999] showed total luciferase, z-score 1.06.
Depletion of TMEM117 [SID160751887] resulted in: total luciferase, z-score -0.17.
TMEM117 [SID160751888] gave total luciferase, z-score -0.789.
TMEM117 [SID160751889] showed total luciferase, z-score -1.73.

Records above whose gene name starts with T or t (6):
TGM5 [SID160721970]: total luciferase, z-score = -0.335
TGM5 [SID160721971]: total luciferase, z-score = -0.161
TGM5 [SID160721972]: total luciferase, z-score = 2.15
TMEM117 [SID160751887]: total luciferase, z-score = -0.17
TMEM117 [SID160751888]: total luciferase, z-score = -0.789
TMEM117 [SID160751889]: total luciferase, z-score = -1.73
